From patent CN115232208A
Results are given in words; binding and its absence hold for the method and conditions named. Some binding calls cover weakened binding; strength is not graded here.

By UniProt entry, the sequences of proteins in these tests, tags left out. Residues count along the entry.
UniProt Q9Y275, residues 134-285: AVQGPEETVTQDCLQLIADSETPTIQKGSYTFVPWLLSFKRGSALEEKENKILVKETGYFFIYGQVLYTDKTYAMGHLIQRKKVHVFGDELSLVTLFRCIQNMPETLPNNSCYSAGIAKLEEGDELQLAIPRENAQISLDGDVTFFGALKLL

B1: H48L47 (antibody, human IgG1, kappa, V domains shown)
VH: EVQLVESGGGLVQPGGSMKLSCAASGFTFSDAWMDWVRQAPGKGLEWVAEIRNKANNHATYQAESVKGRFTISRDDSKNSVYLQMNSLKTEDTAVYYCTRAPFDLLVRRGYYIMDYWGQGTSVTVSS
VL: DIQMTQTPSSLSASLGDRVTISCRTSQDISIYLNWYQQKPGKAPKLLIYYTSRLRSGVPSRFSGSGSGTDFSLTISSLQPEDFATYFCQQGSTLPWTFGGGTKLEIKR
B2: H484L473 (antibody, human IgG1, kappa, V domains shown)
VH: EVQLVESGGGLVQPGGSLRLSCAASGFTFSDAWMDWVRQAPGKGLEWVAEIRNKANNHATYQAESVKGRFTISRDDSKSSVYLQMNSLRAEDTAVYYCTRAPFDLLVRRGYYIMDYWGQGTLVTVSS
VL: DIQMTQSPSSLSASVGDRVTITCRTSQDISIYLNWYQQKPGKAPKLLIYYTSRLRSGVPSRFSGSGSGTDFTFTISSLQPEDIATYFCQQGSTLPWTFGGGTKLEIKR
B3: H48L473 (antibody, human IgG1, kappa, V domains shown)
VH: EVQLVESGGGLVQPGGSMKLSCAASGFTFSDAWMDWVRQAPGKGLEWVAEIRNKANNHATYQAESVKGRFTISRDDSKNSVYLQMNSLKTEDTAVYYCTRAPFDLLVRRGYYIMDYWGQGTSVTVSS
VL: DIQMTQSPSSLSASVGDRVTITCRTSQDISIYLNWYQQKPGKAPKLLIYYTSRLRSGVPSRFSGSGSGTDFTFTISSLQPEDIATYFCQQGSTLPWTFGGGTKLEIKR
B4: H482L47 (antibody, human IgG1, kappa, V domains shown)
VH: EVQLVESGGGLVQPGGSLRLSCAASGFTFSDAWMDWVRQAPGKGLEWVGEIRNKANNHATYQAESVKGRFTISRDDSKNSVYLQMNSLKTEDTAVYYCTRAPFDLLVRRGYYIMDYWGQGTLVTVSS
VL: DIQMTQTPSSLSASLGDRVTISCRTSQDISIYLNWYQQKPGKAPKLLIYYTSRLRSGVPSRFSGSGSGTDFSLTISSLQPEDFATYFCQQGSTLPWTFGGGTKLEIKR
B5: H482L472 (antibody, human IgG1, kappa, V domains shown)
VH: EVQLVESGGGLVQPGGSLRLSCAASGFTFSDAWMDWVRQAPGKGLEWVGEIRNKANNHATYQAESVKGRFTISRDDSKNSVYLQMNSLKTEDTAVYYCTRAPFDLLVRRGYYIMDYWGQGTLVTVSS
VL: DIQMTQSPSSLSASVGDRVTITCRTSQDISIYLNWYQQKPGKAPKLLIYYTSRLRSGVPSRFSGSGSGTDFTLTISSLQPEDFATYFCQQGSTLPWTFGGGTKLEIKR
B6: H483L473 (antibody, human IgG1, kappa, V domains shown)
VH: EVQLVESGGGLVKPGGSLRLSCAASGFTFSDAWMDWVRQAPGKGLEWVGEIRNKANNHATYQAESVKGRFTISRDDSKSTVYLQMNSLKTEDTAVYYCTRAPFDLLVRRGYYIMDYWGQGTLVTVSS
VL: DIQMTQSPSSLSASVGDRVTITCRTSQDISIYLNWYQQKPGKAPKLLIYYTSRLRSGVPSRFSGSGSGTDFTFTISSLQPEDIATYFCQQGSTLPWTFGGGTKLEIKR
B7: H483L47 (antibody, human IgG1, kappa, V domains shown)
VH: EVQLVESGGGLVKPGGSLRLSCAASGFTFSDAWMDWVRQAPGKGLEWVGEIRNKANNHATYQAESVKGRFTISRDDSKSTVYLQMNSLKTEDTAVYYCTRAPFDLLVRRGYYIMDYWGQGTLVTVSS
VL: DIQMTQTPSSLSASLGDRVTISCRTSQDISIYLNWYQQKPGKAPKLLIYYTSRLRSGVPSRFSGSGSGTDFSLTISSLQPEDFATYFCQQGSTLPWTFGGGTKLEIKR
B8: H482L473 (antibody, human IgG1, kappa, V domains shown)
VH: EVQLVESGGGLVQPGGSLRLSCAASGFTFSDAWMDWVRQAPGKGLEWVGEIRNKANNHATYQAESVKGRFTISRDDSKNSVYLQMNSLKTEDTAVYYCTRAPFDLLVRRGYYIMDYWGQGTLVTVSS
VL: DIQMTQSPSSLSASVGDRVTITCRTSQDISIYLNWYQQKPGKAPKLLIYYTSRLRSGVPSRFSGSGSGTDFTFTISSLQPEDIATYFCQQGSTLPWTFGGGTKLEIKR
B9: H484L474 (antibody, human IgG1, kappa, V domains shown)
VH: EVQLVESGGGLVQPGGSLRLSCAASGFTFSDAWMDWVRQAPGKGLEWVAEIRNKANNHATYQAESVKGRFTISRDDSKSSVYLQMNSLRAEDTAVYYCTRAPFDLLVRRGYYIMDYWGQGTLVTVSS
VL: DIQMTQSPSSVSASVGDRVTITCRTSQDISIYLNWYQQKPGKAPKLLIYYTSRLRSGVPSRFSGSGSGTDFTLTISSLQPEDFATYFCQQGSTLPWTFGGGTKLEIKR
B10: H484L47 (antibody, human IgG1, kappa, V domains shown)
VH: EVQLVESGGGLVQPGGSLRLSCAASGFTFSDAWMDWVRQAPGKGLEWVAEIRNKANNHATYQAESVKGRFTISRDDSKSSVYLQMNSLRAEDTAVYYCTRAPFDLLVRRGYYIMDYWGQGTLVTVSS
VL: DIQMTQTPSSLSASLGDRVTISCRTSQDISIYLNWYQQKPGKAPKLLIYYTSRLRSGVPSRFSGSGSGTDFSLTISSLQPEDFATYFCQQGSTLPWTFGGGTKLEIKR

Each binder was assayed against 重组人BLyS蛋白 (recombinant human BLyS protein) (human) (UniProt Q9Y275) (assay: Binding ELISA, human BLyS coated).

binding, binds:
B1
B2
B3
B4
B5
B6
B7
B8
B9
B10
